According to paper PMC3988052:
Results are given in words; binding and its absence hold for the method and conditions named. Binding seen in cells or lysates may run through a third protein. Some binding calls cover weakened binding; strength is not graded here. Where a sequence is shown, tags or fusion partners need not be part of it.

Biological target: ATHB17Δ113::MYC-HA (C-terminal MYC-HA fusion of ATHB17Δ113) (Arabidopsis) (UniProt Q8S9N6)
Assay: co-IP; bead-based co-immunoprecipitation with Luminex on-bead detection; lysates of co-transformed maize leaf protoplasts; capture on anti-MYC magnetic beads, detection with biotinylated anti-CFP and NeutrAvidin R-phycoerythrin; signal above mean + 3 sigma of the negative controls counted as positive

binding: binds
B1: ATHB17Δ113::MYC-HA (C-terminal MYC-HA fusion of ATHB17Δ113) (domain or fragment, UniProt Q8S9N6 114-275)
chain: MNRLPSSEDGDDEEFSHDDGSAPPRKKLRLTREQSRLLEDSFRQNHTLNPKQKEVLAKHLMLRPRQIEVWFQNRRARSKLKQTEMECEYLKRWFGSLTEENHRLHREVEELRAIKVGPTTVNSASSLTMCPRCERVTPAASPSRAVVPVPAKKTFPPQERDR
